Data on three molecules can be found in US8029920B2, “1,3,5-tris(diarylamino)benzenes and use thereof” (Bando Chemical Industries, Ltd, priority 2006, dated 2011).

Structures are written as SMILES.

A short description of the data set: Organic electroluminescence element with the substance as hole transporting layer. To be noted: for energy efficiency / current efficiency: current density 25 mA/cm^2; for current efficiency: hole transporting layer 10 nm, CuPC/Alq3/LiF/Al element; for luminance half-life period: driving time to half the initial luminance of 1000 cd/m^2.

`Cc1ccc(-c2ccc(N(c3ccc(-c4ccc(C)cc4)cc3)c3cc(N(c4ccc(C)cc4)c4ccc(C)cc4)cc(N(c4ccc(-c5ccc(C)cc5)cc4)c4ccc(-c5ccc(C)cc5)cc4)c3)cc2)cc1` [compound (3), N,N,N′,N′-tetrakis(4′-methyl-4-biphenylyl)-N″,N″-bis(4-methylphenyl)benzene-1,3,5-triamine] came in with a maximum luminance of 33239 cd/m^2, an energy efficiency of 3.4 lm/W, a current efficiency of 5.4 cd/A and a luminance half-life period of 594 days.
In the same order, the values of `Cc1ccc(N(c2ccc(C)cc2)c2cc(N(c3ccc(-c4ccccc4)cc3)c3ccc(-c4ccccc4)cc3)cc(N(c3ccc(-c4ccccc4)cc3)c3ccc(-c4ccccc4)cc3)c2)cc1` [compound (4), N,N,N′,N′-tetrakis(4-biphenylyl)-N″,N″-bis(4-methylphenyl)benzene-1,3,5-triamine] are 32910 cd/m^2, 3.3 lm/W, 5.2 cd/A and 660.92 days.
`c1ccc(N(c2ccc(-c3ccc(N(c4ccccc4)c4cccc5ccccc45)cc3)cc2)c2cccc3ccccc23)cc1` [α-NPD, 4,4′-bis(N-(1-naphthyl)-N-phenylamino)-biphenyl, reference compound] displayed a maximum luminance of 28710 cd/m^2, an energy efficiency of 2.2 lm/W, a current efficiency of 4.0 cd/A and a luminance half-life period of 334.1 days.
